Assay results taken from the supplement of paper PMC10849652.
Some of the results follow.

Chains of the proteins cited; added tags and fusions are not shown. Lines headed by an entry give the natural chain unless they say otherwise; changes in a name come on top.
UniProt P14735, whole entry, looked up: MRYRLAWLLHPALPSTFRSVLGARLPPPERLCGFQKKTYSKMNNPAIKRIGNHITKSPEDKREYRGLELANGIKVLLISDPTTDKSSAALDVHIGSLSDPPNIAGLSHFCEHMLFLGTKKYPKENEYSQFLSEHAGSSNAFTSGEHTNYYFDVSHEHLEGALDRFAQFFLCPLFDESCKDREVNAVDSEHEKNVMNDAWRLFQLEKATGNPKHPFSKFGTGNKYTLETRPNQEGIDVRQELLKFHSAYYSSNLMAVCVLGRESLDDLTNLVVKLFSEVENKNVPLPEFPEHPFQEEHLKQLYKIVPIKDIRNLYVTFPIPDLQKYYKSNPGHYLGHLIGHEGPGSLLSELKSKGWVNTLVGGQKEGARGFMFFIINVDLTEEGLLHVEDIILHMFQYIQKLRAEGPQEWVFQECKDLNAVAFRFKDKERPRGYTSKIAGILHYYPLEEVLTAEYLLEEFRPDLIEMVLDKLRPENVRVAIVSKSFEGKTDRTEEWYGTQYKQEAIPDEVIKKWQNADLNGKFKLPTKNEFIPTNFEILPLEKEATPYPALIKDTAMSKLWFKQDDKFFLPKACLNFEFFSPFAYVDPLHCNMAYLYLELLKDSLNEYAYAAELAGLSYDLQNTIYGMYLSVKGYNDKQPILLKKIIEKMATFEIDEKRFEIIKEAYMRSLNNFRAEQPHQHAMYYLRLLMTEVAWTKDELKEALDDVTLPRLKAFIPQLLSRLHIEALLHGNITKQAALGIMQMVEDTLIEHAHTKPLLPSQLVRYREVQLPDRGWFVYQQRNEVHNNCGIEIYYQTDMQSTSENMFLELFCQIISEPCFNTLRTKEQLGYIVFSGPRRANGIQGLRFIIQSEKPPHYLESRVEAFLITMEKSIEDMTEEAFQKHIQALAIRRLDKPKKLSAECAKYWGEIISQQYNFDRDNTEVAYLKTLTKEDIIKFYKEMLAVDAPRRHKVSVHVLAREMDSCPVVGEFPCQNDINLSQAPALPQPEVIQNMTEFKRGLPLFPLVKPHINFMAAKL
UniProt Q14103: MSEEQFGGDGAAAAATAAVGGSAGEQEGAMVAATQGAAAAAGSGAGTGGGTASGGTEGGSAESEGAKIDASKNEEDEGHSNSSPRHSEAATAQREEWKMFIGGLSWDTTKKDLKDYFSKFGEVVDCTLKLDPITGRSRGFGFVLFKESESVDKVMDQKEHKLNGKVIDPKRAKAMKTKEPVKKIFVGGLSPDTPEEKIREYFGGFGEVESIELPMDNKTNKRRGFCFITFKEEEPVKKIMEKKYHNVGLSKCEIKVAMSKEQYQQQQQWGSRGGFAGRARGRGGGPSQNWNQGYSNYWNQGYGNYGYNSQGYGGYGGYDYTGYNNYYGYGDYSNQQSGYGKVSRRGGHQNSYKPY
UniProt Q9NSE4: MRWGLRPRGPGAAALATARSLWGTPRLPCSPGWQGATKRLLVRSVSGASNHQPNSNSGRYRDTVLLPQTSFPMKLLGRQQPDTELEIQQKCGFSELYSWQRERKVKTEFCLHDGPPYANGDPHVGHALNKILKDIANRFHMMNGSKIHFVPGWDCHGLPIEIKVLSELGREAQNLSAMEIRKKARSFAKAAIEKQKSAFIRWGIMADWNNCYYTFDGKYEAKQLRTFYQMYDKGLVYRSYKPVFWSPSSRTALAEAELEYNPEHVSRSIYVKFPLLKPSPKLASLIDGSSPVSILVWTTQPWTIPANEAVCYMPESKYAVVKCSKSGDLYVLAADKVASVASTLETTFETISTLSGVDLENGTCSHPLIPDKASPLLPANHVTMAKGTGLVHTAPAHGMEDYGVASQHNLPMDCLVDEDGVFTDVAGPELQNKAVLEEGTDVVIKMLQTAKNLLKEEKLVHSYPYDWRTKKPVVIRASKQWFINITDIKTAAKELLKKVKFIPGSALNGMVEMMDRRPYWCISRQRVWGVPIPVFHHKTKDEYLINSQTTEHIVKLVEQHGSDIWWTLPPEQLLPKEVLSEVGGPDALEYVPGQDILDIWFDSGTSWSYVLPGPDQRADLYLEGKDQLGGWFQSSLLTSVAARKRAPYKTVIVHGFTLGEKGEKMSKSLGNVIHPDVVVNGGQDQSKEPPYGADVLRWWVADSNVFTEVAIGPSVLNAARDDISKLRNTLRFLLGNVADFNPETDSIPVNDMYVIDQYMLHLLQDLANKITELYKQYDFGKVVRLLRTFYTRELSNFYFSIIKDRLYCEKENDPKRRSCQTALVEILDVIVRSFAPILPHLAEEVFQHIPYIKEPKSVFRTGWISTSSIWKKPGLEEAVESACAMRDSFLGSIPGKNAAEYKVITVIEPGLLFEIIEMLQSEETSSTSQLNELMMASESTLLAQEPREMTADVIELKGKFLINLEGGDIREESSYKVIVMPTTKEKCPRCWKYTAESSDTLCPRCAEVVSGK
UniProt P07910: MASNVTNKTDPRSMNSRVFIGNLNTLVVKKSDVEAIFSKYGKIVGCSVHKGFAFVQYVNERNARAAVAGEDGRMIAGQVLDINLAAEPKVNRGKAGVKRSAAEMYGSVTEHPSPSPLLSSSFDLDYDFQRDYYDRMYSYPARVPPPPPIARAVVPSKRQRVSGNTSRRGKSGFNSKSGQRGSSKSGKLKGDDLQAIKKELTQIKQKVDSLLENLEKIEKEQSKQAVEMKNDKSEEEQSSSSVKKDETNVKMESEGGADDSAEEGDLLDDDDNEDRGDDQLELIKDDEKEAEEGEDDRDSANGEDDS
UniProt P52597: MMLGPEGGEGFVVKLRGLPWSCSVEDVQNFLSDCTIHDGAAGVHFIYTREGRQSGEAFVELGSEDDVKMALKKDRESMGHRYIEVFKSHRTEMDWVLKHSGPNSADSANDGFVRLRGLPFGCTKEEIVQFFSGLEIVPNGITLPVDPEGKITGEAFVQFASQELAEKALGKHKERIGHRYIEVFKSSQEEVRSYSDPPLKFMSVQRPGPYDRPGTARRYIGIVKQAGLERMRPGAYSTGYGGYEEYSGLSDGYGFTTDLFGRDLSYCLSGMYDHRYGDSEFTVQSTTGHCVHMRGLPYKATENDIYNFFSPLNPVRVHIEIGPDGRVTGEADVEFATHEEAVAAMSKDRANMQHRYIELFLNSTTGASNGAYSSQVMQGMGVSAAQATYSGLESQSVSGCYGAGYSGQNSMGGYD
UniProt Q9NQE9: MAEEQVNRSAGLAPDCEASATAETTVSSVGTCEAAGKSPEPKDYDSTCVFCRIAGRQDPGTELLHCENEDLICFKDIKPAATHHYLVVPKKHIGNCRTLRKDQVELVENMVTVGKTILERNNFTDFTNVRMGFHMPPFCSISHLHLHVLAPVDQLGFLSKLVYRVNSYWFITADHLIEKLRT
UniProt O95757: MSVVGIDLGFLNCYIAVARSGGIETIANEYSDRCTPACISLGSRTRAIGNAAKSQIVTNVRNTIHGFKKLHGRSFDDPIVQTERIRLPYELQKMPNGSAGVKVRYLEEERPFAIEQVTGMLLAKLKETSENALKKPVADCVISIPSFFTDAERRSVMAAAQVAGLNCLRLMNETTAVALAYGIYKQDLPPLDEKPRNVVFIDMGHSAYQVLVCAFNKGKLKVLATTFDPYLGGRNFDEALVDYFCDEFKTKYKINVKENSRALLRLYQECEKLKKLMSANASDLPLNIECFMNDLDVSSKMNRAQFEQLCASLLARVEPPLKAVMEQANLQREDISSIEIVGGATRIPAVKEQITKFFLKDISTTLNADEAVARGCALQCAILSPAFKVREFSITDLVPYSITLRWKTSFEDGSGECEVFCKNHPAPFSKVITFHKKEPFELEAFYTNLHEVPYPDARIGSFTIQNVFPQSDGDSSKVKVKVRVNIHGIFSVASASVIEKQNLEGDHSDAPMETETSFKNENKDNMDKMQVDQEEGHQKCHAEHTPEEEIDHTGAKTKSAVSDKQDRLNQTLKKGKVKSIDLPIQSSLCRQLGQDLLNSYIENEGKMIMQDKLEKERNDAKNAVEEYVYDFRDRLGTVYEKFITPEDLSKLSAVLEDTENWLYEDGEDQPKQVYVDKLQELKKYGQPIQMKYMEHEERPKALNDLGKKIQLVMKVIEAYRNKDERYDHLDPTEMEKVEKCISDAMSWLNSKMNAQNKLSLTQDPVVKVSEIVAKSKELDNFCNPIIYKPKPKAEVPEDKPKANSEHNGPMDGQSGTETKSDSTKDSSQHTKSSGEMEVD
UniProt P30519: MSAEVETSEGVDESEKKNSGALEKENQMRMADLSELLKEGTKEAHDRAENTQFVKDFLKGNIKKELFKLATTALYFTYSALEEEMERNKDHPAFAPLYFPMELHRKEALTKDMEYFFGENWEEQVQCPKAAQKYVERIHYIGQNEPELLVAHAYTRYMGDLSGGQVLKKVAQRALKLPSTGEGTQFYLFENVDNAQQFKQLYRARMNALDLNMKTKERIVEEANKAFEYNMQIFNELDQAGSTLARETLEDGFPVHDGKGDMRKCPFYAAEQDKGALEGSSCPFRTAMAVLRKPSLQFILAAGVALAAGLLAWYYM

Each target was assayed with CS(=O)(=O)N1CCN(Cc2cc3nc(-c4cccc5[nH]ncc45)nc(N4CCOCC4)c3s2)CC1 [pictilisib] (assay: log2 fold change, soluble protein after heating vs DMSO (PISA); higher = thermal stabilisation; K562 cells, 10 uM, 30 min; active = over 0.2 and 3.5 SD of the protein, either way, in both replicates (recomputed)).
In short: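 K562 cells at 2×10^6 cells/mL were treated with 10 μM compound for 30 min. Aliquots were heated for 3 min across 48°C-58°C, pooled, and extracted in PBS with 0.5% NP-40 at 4°C; soluble protein was the supernatant after 21,000xg for 90 min. Soluble protein was quantified by TMTpro 16plex LC-MS/MS with channel sums equalised, and reported as log2 fold change in thermal stability against DMSO controls, with values from duplicates.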

Question: For IDE (UniProt P14735), which log2 fold change is on record?
Answer: The log2 fold change was inactive: -0.005.

Question: HNRNPD isoform 4 (UniProt Q14103) was tested. Which log2 fold change did it give?
Answer: The log2 fold change was inactive: -0.13.

Question: Which log2 fold change does the source give for IARS2 (UniProt Q9NSE4) here?
Answer: Its log2 fold change is inactive: -0.039.

Question: Which log2 fold change does the source give for HNRNPC isoform 2 (UniProt P07910) here?
Answer: Its log2 fold change is inactive: 0.065.

Question: For HNRNPF (UniProt P52597), which log2 fold change is on record?
Answer: The log2 fold change was inactive: -0.088.

Question: How did the log2 fold change turn out when HINT3 (UniProt Q9NQE9) was run?
Answer: Its log2 fold change is inactive: -0.055.

Question: For HSPA4L (UniProt O95757), which log2 fold change is on record?
Answer: The log2 fold change was inactive: -0.039.

Question: HIST2H3A (UniProt Q71DI3) was tested. Which log2 fold change did it give?
Answer: The log2 fold change was inactive: -0.021.

Question: How did the log2 fold change turn out when HMGN2 (UniProt P05204) was run?
Answer: The log2 fold change was inactive: -0.264.

Question: For HMOX2 (UniProt P30519), which log2 fold change is on record?
Answer: The log2 fold change was inactive: -0.04.

Question: Which log2 fold change does the source give for HSPG2 (UniProt P98160) here?
Answer: The log2 fold change was inactive: 0.115.
